Measured values taken from US6723531B2, “Method for modulating expression of exogenous genes in mammalian systems, and products related thereto” (The Salk Institute for Biological Studies, priority 1996, dated 2004).
Some entries share one result that the patent states for a list of compounds. For at least one compound, name, drawing or mass did not settle the structure.

Test system: N13 cells (293 cells with VpEcR, RXR and ecdysone inducible reporter)
Experiment: Dose-response assay in N13 cells (β-galactosidase and luciferase reporters)
Type: cell-based
Settings: final concentrations of about 10^−4; 36 hours
Method: N13 cells were grown with varying concentrations of muristerone for 36 hours and then assayed for β-galactosidase activity (open squares) by standard ONPG assay or for luciferase activity (closed circles). […] N13 cells were grown in separate wells in the presence of 1 μM muristerone, harvested at varying times, and assayed for luciferase activity as described in Example 3.
FIG. 5 compares the dose-dependent activation of N13 cells with muristerone (X) and ponasterone A (open circles).
A dose-response assay was conducted by growing N13 cells with varying concentrations of muristerone for 36 hours and then assaying for β-galactosidase activity (using the well-known ONPG assay), or the cells were assayed for luciferase activity. […] One-hundred fold induction was achieved by muristerone concentrations as low as 100 nM (FIG. 3A).
A dose-response assay was conducted as described in Example 3, by growing N13 cells with varying concentrations of muristerone or ponasterone A for 36 hours and then assaying for β-galactosidase activity (using the well-known ONPG assay), or the cells were assayed for luciferase activity.

Compound	inducibility of β-galactosidase and luciferase reporters
CC(C)CC[C@@H](O)[C@](C)(O)[C@H]1CC[C@@]2(O)C3=CC(=O)[C@]4(O)C[C@@H](O)[C@@H](O)C[C@]4(C)[C@H]3[C@H](O)C[C@]12C [muristerone A]	exceeding 3 orders of magnitude
CC(C)CC[C@@H](O)[C@](C)(O)[C@H]1CC[C@@]2(O)C3=CC(=O)[C@@H]4C[C@@H](O)[C@@H](O)C[C@]4(C)[C@H]3CC[C@]12C [ponasterone A]	exceeding 3 orders of magnitude
